# Measurements from the supplement of paper PMC8728848.
# The list shows a part of the results.
# B1: GroEL (Clostridium difficile), Q18CT5 (protein)
# chain: MAKEIKFSEETRRALEAGVNKLADTVKVTLGPKGRNVILDKKFGSPLITNDGVTIAKEIELEDRFENMGAQLVKEVATKTNDVAGDGTTTATVLAQAIIREGLKNVTAGANPILLRKGIQKAVTVAVEELKNQSRIVETQEAISQVASISAGDEEVGKLIAEAMEIVGKDGVITVEESQTMNTELDAVEGMQFDRGFVSAYMVTDVDKMEAVLNDPYILITDKKISNIQELLPVLEQIVQQGKKLLIIAEDVEGEALSTLVVNKLRGTFDVVAVKAPGFGDRRKEMLQDIAILTGAQVISEELGYDLKEADLSMLGRASSVKVTKESTTIVDGSGDKKAIEDRVTQIKHQVEQTTSDFDREKLMERLAKLAGGVAVVKVGAATEVELKERKLRIEDALNATRAAVEEGIVAGGGTAFVSVIPAIGTLIESLEGEVKLGAQIVKKALEEPLRQIAINAGLEGAVIVQNVVNSEAETGFDALNEKYVNMIEAGIVDPTKVSRSALQNAASIASTFLTTEAAVADLPEKEDAGMPGMGGGMPGMM
# Assays:
# Experiment in all cases: glycan array binding signal (z-score within array); higher = stronger binding
# Settings in all cases: glycan notation: IUPAC condensed, linker removed
# [1] = target: GlcNAc(b1-3)Gal(b1-4)GlcNAc(b1-3)GalNAc
# Method in brief: (§1)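 The binding signal is a Z-score computed within each array and averaged over linkers. Arrays of the same protein sequence at different concentrations or buffers were also averaged together. Data originate from 3228 arrays in the Consortium for Functional Glycomics database, kept only where the protein sequence was available.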
# [2] = target: GlcNAc(b1-3)Gal(b1-4)GlcNAc(b1-3)[GlcNAc(b1-3)Gal(b1-4)GlcNAc(b1-3)]GalNAc
# Method in brief: as §1
# [3] = target: GlcNAc(b1-3)Gal(b1-4)GlcNAc(b1-6)[Gal(b1-3)]GalNAc
# Method in brief: as §1
# [4] = target: GlcNAc(b1-3)Gal(b1-4)GlcNAc(b1-6)[GlcNAc(b1-3)Gal(b1-3)]GalNAc
# Method in brief: as §1
# [5] = target: GlcNAc(b1-3)Gal(b1-4)GlcNAc(b1-6)[GlcNAc(b1-3)]Gal(b1-4)GlcNAc
# Method in brief: as §1
# [6] = target: GlcNAc(b1-3)GalNAc
# Method in brief: as §1
# [7] = target: GlcNAc(b1-3)Man
# Method in brief: as §1
# [8] = target: GlcNAc(b1-3)[GlcNAc(b1-4)][GlcNAc(b1-6)]GlcNAc
# Method in brief: as §1
# [9] = target: GlcNAc(b1-3)[GlcNAc(b1-6)]Gal(b1-4)GlcNAc
# Method in brief: as §1
# [10] = target: GlcNAc(b1-3)[GlcNAc(b1-6)]GalNAc
# Method in brief: as §1
# [11] = target: GlcNAc(b1-4)Gal(b1-4)GlcNAc
# Method in brief: as §1
# [12] = target: GlcNAc(b1-4)GlcNAc
# Method in brief: as §1
# [13] = target: GlcNAc(b1-4)GlcNAc(b1-4)GlcNAc
# Method in brief: as §1
# [14] = target: GlcNAc(b1-4)GlcNAc(b1-4)GlcNAc(b1-4)GlcNAc(b1-4)GlcNAc
# Method in brief: as §1
# [15] = target: GlcNAc(b1-4)GlcNAc(b1-4)GlcNAc(b1-4)GlcNAc(b1-4)GlcNAc(b1-4)GlcNAc
# Method in brief: as §1
# [16] = target: GlcNAc(b1-4)[GlcNAc(b1-6)]GalNAc
# Method in brief: as §1
# [17] = target: GlcNAc(b1-6)Gal(b1-4)GlcNAc
# Method in brief: as §1
# [18] = target: GlcNAc(b1-6)GalNAc
# Method in brief: as §1
# [19] = target: GlcNAc6S(b1-3)Gal(b1-4)GlcNAc
# Method in brief: as §1
# [20] = target: Kdn(a2-3)Gal(b1-3)GalNAc
# Method in brief: as §1
# [21] = target: Kdn(a2-3)Gal(b1-3)GlcNAc
# Method in brief: as §1
# [22] = target: Kdn(a2-3)Gal(b1-4)Glc
# Method in brief: as §1
# [23] = target: Kdn(a2-3)Gal(b1-4)GlcNAc
# Method in brief: as §1
# [24] = target: Kdn(a2-3)Gal(b1-4)[Fuc(a1-3)]GlcNAc
# Method in brief: as §1
# [25] = target: Kdn(a2-6)Gal(b1-4)GlcNAc
# Method in brief: as §1
# [26] = target: Man(a1-2)Man(a1-2)Man(a1-3)Man
# Method in brief: as §1
# [27] = target: Man(a1-2)Man(a1-2)Man(a1-6)[Man(a1-3)]Man
# Method in brief: as §1
# [28] = target: Man(a1-2)Man(a1-3)Man
# Method in brief: as §1
# [29] = target: Man(a1-2)Man(a1-3)[Man(a1-2)Man(a1-6)]Man
# Method in brief: as §1
# [30] = target: Man(a1-2)Man(a1-3)[Man(a1-2)Man(a1-6)]Man(a1-6)[Man(a1-2)Man(a1-2)Man(a1-3)]Man
# Method in brief: as §1
binder,measurement,setting,value
B1,glycan array binding signal (z-score),[1],-1.82
same,glycan array binding signal (z-score),[2],1.1
same,glycan array binding signal (z-score),[3],-1.27
same,glycan array binding signal (z-score),[4],-0.419
same,glycan array binding signal (z-score),[5],0.065
same,glycan array binding signal (z-score),[6],-0.166
same,glycan array binding signal (z-score),[7],-0.312
same,glycan array binding signal (z-score),[8],-0.786
same,glycan array binding signal (z-score),[9],-0.466
same,glycan array binding signal (z-score),[10],-0.491
same,glycan array binding signal (z-score),[11],0.332
same,glycan array binding signal (z-score),[12],-0.465
same,glycan array binding signal (z-score),[13],-1.06
same,glycan array binding signal (z-score),[14],0.295
same,glycan array binding signal (z-score),[15],-1.09
same,glycan array binding signal (z-score),[16],-2.7
same,glycan array binding signal (z-score),[17],-1.06
same,glycan array binding signal (z-score),[18],-0.22
same,glycan array binding signal (z-score),[19],1.61
same,glycan array binding signal (z-score),[20],-0.189
same,glycan array binding signal (z-score),[21],-0.759
same,glycan array binding signal (z-score),[22],-0.071
same,glycan array binding signal (z-score),[23],0.379
same,glycan array binding signal (z-score),[24],1.35
same,glycan array binding signal (z-score),[25],-0.518
same,glycan array binding signal (z-score),[26],2.16
same,glycan array binding signal (z-score),[27],-0.387
same,glycan array binding signal (z-score),[28],-0.993
same,glycan array binding signal (z-score),[29],-1.49
same,glycan array binding signal (z-score),[30],-0.328
